Assay [1] addresses T1, RING finger protein 128 (endogenous, AML12 cells) (mouse (endogenous in AML12)) (UniProt Q9D304).
T1 sequence: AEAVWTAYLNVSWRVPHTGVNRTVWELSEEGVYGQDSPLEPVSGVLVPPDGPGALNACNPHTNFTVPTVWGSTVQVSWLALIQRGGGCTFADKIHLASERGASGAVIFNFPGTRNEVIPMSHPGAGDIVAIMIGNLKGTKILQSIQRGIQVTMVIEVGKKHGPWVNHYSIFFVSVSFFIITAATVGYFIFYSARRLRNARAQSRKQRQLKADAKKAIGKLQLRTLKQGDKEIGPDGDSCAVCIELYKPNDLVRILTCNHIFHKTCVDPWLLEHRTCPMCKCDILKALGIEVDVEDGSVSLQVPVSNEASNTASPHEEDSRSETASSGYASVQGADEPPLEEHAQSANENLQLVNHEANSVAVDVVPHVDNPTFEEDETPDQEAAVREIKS
In words: co-IP; endogenous proteins in AML12 cell extracts; immunoprecipitated with anti-RNF128, anti-PPARα or rabbit IgG at 4 °C overnight in lysis buffer (50 mM Tris pH 8.0, 5 mM NaCl, 0.5% NP-40), Dynabeads Protein G, washes with SNNTE buffer (0.5 M NaCl, 1% NP-40); blots with anti-RNF128 and anti-PPARα; during fasting a significant decrease of the interaction (Fig. S7).

The target in assay [2] is T2, Peroxisome proliferator-activated receptor alpha (endogenous, AML12 cells) (mouse (endogenous in AML12)) (UniProt P23204).
T2 sequence: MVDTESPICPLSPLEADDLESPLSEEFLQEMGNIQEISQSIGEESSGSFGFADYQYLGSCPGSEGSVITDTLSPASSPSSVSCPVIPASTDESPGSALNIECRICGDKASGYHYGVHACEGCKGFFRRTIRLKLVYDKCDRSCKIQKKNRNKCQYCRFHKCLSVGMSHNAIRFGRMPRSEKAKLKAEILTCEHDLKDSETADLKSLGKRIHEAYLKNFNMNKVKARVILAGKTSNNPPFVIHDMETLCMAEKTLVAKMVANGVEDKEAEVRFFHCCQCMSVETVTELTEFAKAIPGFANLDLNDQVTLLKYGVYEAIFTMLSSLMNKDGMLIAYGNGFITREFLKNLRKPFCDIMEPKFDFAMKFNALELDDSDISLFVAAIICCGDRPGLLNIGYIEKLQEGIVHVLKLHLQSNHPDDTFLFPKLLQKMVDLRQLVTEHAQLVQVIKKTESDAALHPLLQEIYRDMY
The assay is described as above.

The target in the next assay is T3, HA-PPARα (UniProt Q07869).
T3 sequence: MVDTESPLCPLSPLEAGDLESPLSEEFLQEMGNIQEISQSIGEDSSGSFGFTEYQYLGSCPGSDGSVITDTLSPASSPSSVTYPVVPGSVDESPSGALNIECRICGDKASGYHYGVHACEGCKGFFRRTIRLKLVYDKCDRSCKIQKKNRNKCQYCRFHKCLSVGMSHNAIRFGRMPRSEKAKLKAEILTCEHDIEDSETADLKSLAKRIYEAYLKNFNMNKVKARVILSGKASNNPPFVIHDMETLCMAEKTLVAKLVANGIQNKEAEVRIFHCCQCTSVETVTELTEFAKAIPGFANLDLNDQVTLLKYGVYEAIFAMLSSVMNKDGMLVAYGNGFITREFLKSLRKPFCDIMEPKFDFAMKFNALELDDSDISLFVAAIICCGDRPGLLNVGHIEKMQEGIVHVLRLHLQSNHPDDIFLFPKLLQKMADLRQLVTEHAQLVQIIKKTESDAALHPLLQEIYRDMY
Description: co-IP; HEK293 cells transiently transfected, lysates after 48 h; immunoprecipitated with GFP antibody (RNF128-GFP constructs with HA-PPARα) or HA antibody (HA-PPARα constructs with Flag-RNF128); immunoblot. In general terms: Immunoblotting shows a protein as a band on a membrane.

Another assay concerns the target T4, HA-PPARα_(1–278) (UniProt Q07869).
T4 sequence: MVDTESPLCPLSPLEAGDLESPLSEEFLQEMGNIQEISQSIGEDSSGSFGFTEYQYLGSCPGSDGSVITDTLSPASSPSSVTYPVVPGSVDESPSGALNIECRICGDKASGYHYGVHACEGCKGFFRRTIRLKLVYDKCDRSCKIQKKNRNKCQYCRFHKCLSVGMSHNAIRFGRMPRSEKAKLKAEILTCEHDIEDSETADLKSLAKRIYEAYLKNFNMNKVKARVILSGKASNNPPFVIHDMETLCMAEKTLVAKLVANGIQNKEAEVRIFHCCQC
Described as above.

In a further assay the target is T5, RNF128-GFP (UniProt Q8TEB7).
T5 sequence: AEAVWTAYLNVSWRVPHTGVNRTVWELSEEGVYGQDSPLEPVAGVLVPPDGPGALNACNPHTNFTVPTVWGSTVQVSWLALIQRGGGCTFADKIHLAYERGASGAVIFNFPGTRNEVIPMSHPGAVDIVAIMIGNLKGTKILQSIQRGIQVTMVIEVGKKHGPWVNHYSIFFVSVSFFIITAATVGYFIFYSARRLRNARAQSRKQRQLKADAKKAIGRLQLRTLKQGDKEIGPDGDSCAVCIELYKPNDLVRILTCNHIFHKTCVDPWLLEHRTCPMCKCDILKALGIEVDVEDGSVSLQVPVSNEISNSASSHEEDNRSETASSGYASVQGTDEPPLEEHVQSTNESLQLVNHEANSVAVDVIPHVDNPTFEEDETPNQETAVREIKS
The assay is described as above.

In another assay the target is T6, RNF128_(1–228)-GFP (UniProt Q8TEB7).
T6 sequence: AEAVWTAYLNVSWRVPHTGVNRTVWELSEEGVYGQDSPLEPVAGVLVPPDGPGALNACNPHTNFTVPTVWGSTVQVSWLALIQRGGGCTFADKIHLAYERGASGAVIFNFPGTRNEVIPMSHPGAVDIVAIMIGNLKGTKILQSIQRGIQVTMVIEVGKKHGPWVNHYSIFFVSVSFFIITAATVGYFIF
The description is as above.

Results are given in words; binding and its absence hold for the method and conditions named. Binding seen in cells or lysates may run through a third protein. Some results given as binding are weak or reduced against the parent protein; the word gives no strength. For part of these data: Where a sequence is shown, tags or fusion partners need not be part of it.

B1: Peroxisome proliferator-activated receptor alpha (endogenous, AML12 cells) (protein, UniProt P23204 1-468)
chain: T2 sequence
Turning to B1, the binding result in assay [1] is “binds”.

B2: RING finger protein 128 (endogenous, AML12 cells) (protein, UniProt Q9D304 39-428)
chain: T1 sequence
For the molecule B2, the binding entry in assay [2] is “binds”.

B3: Flag-RNF128 (protein, UniProt Q8TEB7 39-428)
chain: T5 sequence
Consider B3, for which the binding entry with HA-PPARα and in the assay with HA-PPARα_(1–278) was “binds” in each case.

B4: HA-PPARα (protein, UniProt Q07869 1-468)
chain: T3 sequence
In the case of B4, the binding entry in the assay with RNF128-GFP and in the assay with RNF128_(1–228)-GFP was “binds” each time.

Values taken from article PMC13035816.
